{"source": "patent US20190321426A1", "about": "“COMBINATION THERAPIES WITH CANNABIS PLANT EXTRACT” (TIKUN OLAM LTD, priority 2016, published 2019)", "system": "EAE in SJL mice", "assay": "Suppression of EAE paralysis (clinical score) in SJL mice immunized with PLP 139-151", "format": "in vivo", "settings": "FIG. 2; monotherapies, Avidekel i.p. or Copaxone s.c.; only one peak of paralysis", "note": "Some results were stated once for a whole list of compounds, not compound by compound."}
{"substance": "glatiramer acetate [Copaxone]", "values": [{"measurement": "reduction of clinical score", "result": "32-35%"}]}
